Measured values from PMC4495292.
Results are given in words; binding and its absence hold for the method and conditions named. For some assays here: A result given as binding can be weak or reduced; the word gives no strength. Tags and fused reporters may be left off the sequences shown.

Legend:
[1] = target: T1, Ser37Ala/Thr64Ala-FAM122A-GFP (human) (UniProt Q96E09); assay: condition: only cells pre-treated with H89 (30 µM for 30 min) before forskolin; far-Western, overlay or dot blot; HEK293 cells serum starved 10 h, pre-treated with H89 (30 µM, 30 min), then forskolin (20 µM, 30 min); immunoprecipitated GFP-tagged protein probed with 14-3-3s (overlay); both purified
T1 sequence (chain, phosphoSer62 after forskolin, likely by PKA (the paper's conclusion)): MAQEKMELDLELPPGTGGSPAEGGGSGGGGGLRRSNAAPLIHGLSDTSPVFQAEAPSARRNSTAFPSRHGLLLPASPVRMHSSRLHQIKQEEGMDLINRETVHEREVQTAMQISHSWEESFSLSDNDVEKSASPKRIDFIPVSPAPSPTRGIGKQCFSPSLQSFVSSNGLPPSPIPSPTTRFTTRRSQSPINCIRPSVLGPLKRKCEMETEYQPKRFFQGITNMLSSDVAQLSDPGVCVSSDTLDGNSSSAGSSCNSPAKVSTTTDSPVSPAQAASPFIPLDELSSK

[2] = target: T1, Ser37Ala/Thr64Ala-FAM122A-GFP (human); assay: far-Western, overlay or dot blot; GFP-tagged proteins isolated with GFP-Trap from lysates of transfected HEK293 cells and probed with 14-3-3s (overlay); cells in medium with 10% serum, with or without 100 nM calyculin A; in Fig. 2D serum starved 10 h, then serum (10%, 30 min) or forskolin (20 µM, 30 min); both purified

## 14-3-3s used as the probe in Far-Western overlays
[1]
  binding: no binding
[2]
  binding: binds
